According to the supplement of paper PMC3334620:
The full ranking holds about 33,000 sequences; the median of “E-score (-0.5 to 0.5)” is about -0.015, and the highest 2% start at about 0.3. The list shows a part of the results.

The sequences below were run against T1, Abf1 (UniProt P14164) (assay: PBM E-score (8-mer binding enrichment) (E-score (-0.5 to 0.5)); higher = stronger / more preferred TF binding). Conditions: protein concentration: 200 nM; construct: GST-full length.
T1 sequence: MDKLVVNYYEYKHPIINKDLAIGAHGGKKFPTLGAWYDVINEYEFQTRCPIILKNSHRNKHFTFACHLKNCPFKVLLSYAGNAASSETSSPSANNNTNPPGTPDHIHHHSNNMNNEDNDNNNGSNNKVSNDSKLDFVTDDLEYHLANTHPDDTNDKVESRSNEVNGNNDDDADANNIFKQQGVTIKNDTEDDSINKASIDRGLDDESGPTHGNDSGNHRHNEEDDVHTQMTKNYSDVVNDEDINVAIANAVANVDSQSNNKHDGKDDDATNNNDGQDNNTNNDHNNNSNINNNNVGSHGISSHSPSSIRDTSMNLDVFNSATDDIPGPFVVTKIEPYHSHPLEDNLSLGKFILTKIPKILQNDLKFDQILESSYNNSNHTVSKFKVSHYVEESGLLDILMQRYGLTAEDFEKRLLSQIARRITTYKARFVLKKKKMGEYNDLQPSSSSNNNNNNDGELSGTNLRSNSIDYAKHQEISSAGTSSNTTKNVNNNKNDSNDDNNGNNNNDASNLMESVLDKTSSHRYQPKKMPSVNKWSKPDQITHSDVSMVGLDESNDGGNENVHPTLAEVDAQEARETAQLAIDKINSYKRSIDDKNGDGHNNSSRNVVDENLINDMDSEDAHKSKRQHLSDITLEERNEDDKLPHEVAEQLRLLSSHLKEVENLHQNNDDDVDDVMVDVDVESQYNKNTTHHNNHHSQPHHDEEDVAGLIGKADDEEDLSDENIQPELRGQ
In short: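 GST-tagged yeast TFs (full-length or DNA-binding domain) were made by PURExpress in vitro transcription/translation and applied at about 100-200 nM to universal all-10-mer Agilent arrays. The arrays were made double-stranded by primer extension, on fresh or once-stripped slides. Bound protein was detected with fluorescent anti-GST, and scans were normalised with masliner. Each ungapped eight-base word, pooled with its reverse complement, received an E-score (modified Wilcoxon-Mann-Whitney statistic) from the Universal PBM Analysis Suite.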
With GCCTGTAC the “PBM E-score” value was 0.0979.
For CACTTCGC, the “PBM E-score” value was -0.0429.
CCGACTCG was tested, and the “PBM E-score” value was -0.113.
AGATTTGG was tested, and the “PBM E-score” value was -0.145.
For TACATCAA, the “PBM E-score” value was 0.018.
For CACAACCA, the “PBM E-score” value was 0.0715.
In the case of AATTCTGC, the “PBM E-score” value is reported as 0.059.
With GAGTGGGC the “PBM E-score” value was -0.242.
For AAGCGGCG, the “PBM E-score” value was -0.0976.
With AACACTGA the “PBM E-score” value was -0.142.
For CTATTGCC, the “PBM E-score” value was -0.215.
GCAGAGCC was tested, and the “PBM E-score” value was -0.203.
For CGGCGTGC, the “PBM E-score” value was -0.154.
With GGGCTAAC the “PBM E-score” value was -0.117.
With AACTCATC the “PBM E-score” value was 0.0775.
With CACGCTAG the “PBM E-score” value was 0.00309.
In the case of CCGAAACC, the “PBM E-score” value is reported as -0.172.
For ACTCCATG, the “PBM E-score” value was -0.16.
For AGAATCAA, the “PBM E-score” value was 0.0578.
For CCGTTCAA, the “PBM E-score” value was 0.26.
For AACGGAAG, the “PBM E-score” value was -0.0304.
For GTAATCCA, the “PBM E-score” value was 0.0963.
CATCTGCA was tested, and the “PBM E-score” value was -0.02.
For GGATCCCC, the “PBM E-score” value was -0.241.
For CTTGGCCC, the “PBM E-score” value was -0.372.
With GTGCTACA the “PBM E-score” value was 0.0409.
In the case of AGCTTGTG, the “PBM E-score” value is reported as -0.162.
With GTTGCCCA the “PBM E-score” value was -0.00325.
CCTCTGGC was tested, and the “PBM E-score” value was -0.119.
With AGGGAGAC the “PBM E-score” value was -0.188.
For ACGTGGAA, the “PBM E-score” value was 0.118.
In the case of TTCGAAAA, the “PBM E-score” value is reported as 0.289.
With AGGATGAG the “PBM E-score” value was -0.0187.
For ATTTAGCA, the “PBM E-score” value was 0.193.
In the case of TAGCAGAA, the “PBM E-score” value is reported as 0.113.
With ACCAAGAA the “PBM E-score” value was -0.00575.
With CGCGAATC the “PBM E-score” value was 0.0291.
For AAGTAGTA, the “PBM E-score” value was 0.212.
With ATACTCCC the “PBM E-score” value was -0.0156.
CGTCAGTA was tested, and the “PBM E-score” value was 0.104.
AAAACGAG was tested, and the “PBM E-score” value was 0.0711.
AGGTTTAA was tested, and the “PBM E-score” value was -0.0621.
For CCGGCGAG, the “PBM E-score” value was -0.139.
GAGGGAGC was tested, and the “PBM E-score” value was -0.274.
In the case of TGATATAA, the “PBM E-score” value is reported as 0.281.
With ACTGCTTG the “PBM E-score” value was -0.205.
In the case of ACTACAGA, the “PBM E-score” value is reported as 0.0352.
In the case of ATCCCCTG, the “PBM E-score” value is reported as -0.108.
With AAGCCATC the “PBM E-score” value was 0.14.
In the case of ATGCTGAA, the “PBM E-score” value is reported as -0.0362.
With GTCATCAC the “PBM E-score” value was 0.334.
In the case of AATATTAG, the “PBM E-score” value is reported as 0.214.
In the case of GCCTCTCC, the “PBM E-score” value is reported as -0.266.
With GAACACAA the “PBM E-score” value was -0.0576.
For ATCGCGCA, the “PBM E-score” value was 0.181.
With CACGTCCA the “PBM E-score” value was -0.0875.
AGACCTGA was tested, and the “PBM E-score” value was -0.121.
For TCCTTAGA, the “PBM E-score” value was -0.0788.
CAGCCGAC was tested, and the “PBM E-score” value was -0.17.
With ATTAGTTA the “PBM E-score” value was 0.237.
For TAGGGAGA, the “PBM E-score” value was -0.0106.
With AGGCGTGC the “PBM E-score” value was 0.0321.
In the case of AGACTATC, the “PBM E-score” value is reported as -0.0875.
With ATTCAGTG the “PBM E-score” value was -0.0205.
For ACAGTAGG, the “PBM E-score” value was -0.0881.
With AGCGCACG the “PBM E-score” value was -0.14.
CGTGAACC was tested, and the “PBM E-score” value was -0.019.
With GGTATCGA the “PBM E-score” value was 0.0737.
CTAATGCC was tested, and the “PBM E-score” value was -0.208.
In the case of ACCTCACG, the “PBM E-score” value is reported as 0.0545.
With AGAGGATG the “PBM E-score” value was -0.0558.
For AACACAGG, the “PBM E-score” value was -0.154.
With GTAACAAA the “PBM E-score” value was 0.141.
For CACTGACC, the “PBM E-score” value was -0.257.
In the case of CTCTCAAC, the “PBM E-score” value is reported as -0.0871.
In the case of GCCTCTTA, the “PBM E-score” value is reported as -0.0192.
In the case of CTTCGGTA, the “PBM E-score” value is reported as -0.145.
With AGTTCGAA the “PBM E-score” value was 0.00999.
For AGACAAAT, the “PBM E-score” value was 0.0624.
CTTCGCTA was tested, and the “PBM E-score” value was 0.00431.
With TCAGAGAA the “PBM E-score” value was -0.0789.
For AGGCTAAG, the “PBM E-score” value was -0.162.
In the case of CGATTACC, the “PBM E-score” value is reported as 0.103.
For CATATAAG, the “PBM E-score” value was 0.0553.
With ACCGTATC the “PBM E-score” value was 0.225.
In the case of AATACCGC, the “PBM E-score” value is reported as -0.0766.
